Measured values reported in the supplement of paper PMC10849652.
The other results are listed elsewhere or left out.

By UniProt entry, the sequences of proteins in these tests, tags left out. Where a name states a change or a piece, a line headed by the entry shows the natural chain unless it says otherwise.
UniProt Q9BRT2: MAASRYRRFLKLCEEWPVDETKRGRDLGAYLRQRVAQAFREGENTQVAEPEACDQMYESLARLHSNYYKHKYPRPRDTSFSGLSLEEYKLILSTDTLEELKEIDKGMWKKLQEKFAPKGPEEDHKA
UniProt Q15853: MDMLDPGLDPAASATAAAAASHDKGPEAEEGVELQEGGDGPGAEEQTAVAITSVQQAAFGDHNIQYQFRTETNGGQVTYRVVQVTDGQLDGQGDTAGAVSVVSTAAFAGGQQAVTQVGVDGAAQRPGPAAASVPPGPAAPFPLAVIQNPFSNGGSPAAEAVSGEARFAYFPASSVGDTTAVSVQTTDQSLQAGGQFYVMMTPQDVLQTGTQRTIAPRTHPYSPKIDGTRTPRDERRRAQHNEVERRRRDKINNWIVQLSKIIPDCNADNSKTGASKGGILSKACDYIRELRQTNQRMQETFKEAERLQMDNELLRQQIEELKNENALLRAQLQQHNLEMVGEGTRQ
UniProt P18206: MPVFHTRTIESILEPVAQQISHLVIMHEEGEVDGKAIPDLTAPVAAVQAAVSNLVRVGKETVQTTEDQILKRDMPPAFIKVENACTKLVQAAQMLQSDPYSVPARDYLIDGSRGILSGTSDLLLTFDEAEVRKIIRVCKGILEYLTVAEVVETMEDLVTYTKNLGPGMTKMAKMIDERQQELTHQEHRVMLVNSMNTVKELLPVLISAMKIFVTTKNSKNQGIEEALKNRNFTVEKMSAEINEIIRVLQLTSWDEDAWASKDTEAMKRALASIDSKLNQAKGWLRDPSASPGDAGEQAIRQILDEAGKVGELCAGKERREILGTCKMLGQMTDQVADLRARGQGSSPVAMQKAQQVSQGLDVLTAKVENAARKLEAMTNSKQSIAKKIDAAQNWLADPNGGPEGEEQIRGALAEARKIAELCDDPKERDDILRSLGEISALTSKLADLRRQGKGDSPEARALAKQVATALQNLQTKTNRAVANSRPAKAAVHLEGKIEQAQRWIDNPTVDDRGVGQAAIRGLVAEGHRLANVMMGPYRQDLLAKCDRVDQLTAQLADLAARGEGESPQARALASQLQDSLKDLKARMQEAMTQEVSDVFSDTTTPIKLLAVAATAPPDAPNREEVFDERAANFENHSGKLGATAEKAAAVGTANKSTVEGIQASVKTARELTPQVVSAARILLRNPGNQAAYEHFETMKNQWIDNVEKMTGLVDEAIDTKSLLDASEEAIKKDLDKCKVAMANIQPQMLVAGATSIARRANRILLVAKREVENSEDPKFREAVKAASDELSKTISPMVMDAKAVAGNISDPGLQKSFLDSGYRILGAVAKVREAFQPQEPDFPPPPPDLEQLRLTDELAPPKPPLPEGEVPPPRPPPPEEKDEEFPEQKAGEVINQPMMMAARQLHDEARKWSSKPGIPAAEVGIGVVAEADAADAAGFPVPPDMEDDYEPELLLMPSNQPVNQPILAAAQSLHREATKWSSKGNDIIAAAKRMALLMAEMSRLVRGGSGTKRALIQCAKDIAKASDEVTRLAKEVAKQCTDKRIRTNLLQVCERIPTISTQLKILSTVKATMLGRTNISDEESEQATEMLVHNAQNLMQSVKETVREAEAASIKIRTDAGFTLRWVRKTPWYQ
UniProt O95071: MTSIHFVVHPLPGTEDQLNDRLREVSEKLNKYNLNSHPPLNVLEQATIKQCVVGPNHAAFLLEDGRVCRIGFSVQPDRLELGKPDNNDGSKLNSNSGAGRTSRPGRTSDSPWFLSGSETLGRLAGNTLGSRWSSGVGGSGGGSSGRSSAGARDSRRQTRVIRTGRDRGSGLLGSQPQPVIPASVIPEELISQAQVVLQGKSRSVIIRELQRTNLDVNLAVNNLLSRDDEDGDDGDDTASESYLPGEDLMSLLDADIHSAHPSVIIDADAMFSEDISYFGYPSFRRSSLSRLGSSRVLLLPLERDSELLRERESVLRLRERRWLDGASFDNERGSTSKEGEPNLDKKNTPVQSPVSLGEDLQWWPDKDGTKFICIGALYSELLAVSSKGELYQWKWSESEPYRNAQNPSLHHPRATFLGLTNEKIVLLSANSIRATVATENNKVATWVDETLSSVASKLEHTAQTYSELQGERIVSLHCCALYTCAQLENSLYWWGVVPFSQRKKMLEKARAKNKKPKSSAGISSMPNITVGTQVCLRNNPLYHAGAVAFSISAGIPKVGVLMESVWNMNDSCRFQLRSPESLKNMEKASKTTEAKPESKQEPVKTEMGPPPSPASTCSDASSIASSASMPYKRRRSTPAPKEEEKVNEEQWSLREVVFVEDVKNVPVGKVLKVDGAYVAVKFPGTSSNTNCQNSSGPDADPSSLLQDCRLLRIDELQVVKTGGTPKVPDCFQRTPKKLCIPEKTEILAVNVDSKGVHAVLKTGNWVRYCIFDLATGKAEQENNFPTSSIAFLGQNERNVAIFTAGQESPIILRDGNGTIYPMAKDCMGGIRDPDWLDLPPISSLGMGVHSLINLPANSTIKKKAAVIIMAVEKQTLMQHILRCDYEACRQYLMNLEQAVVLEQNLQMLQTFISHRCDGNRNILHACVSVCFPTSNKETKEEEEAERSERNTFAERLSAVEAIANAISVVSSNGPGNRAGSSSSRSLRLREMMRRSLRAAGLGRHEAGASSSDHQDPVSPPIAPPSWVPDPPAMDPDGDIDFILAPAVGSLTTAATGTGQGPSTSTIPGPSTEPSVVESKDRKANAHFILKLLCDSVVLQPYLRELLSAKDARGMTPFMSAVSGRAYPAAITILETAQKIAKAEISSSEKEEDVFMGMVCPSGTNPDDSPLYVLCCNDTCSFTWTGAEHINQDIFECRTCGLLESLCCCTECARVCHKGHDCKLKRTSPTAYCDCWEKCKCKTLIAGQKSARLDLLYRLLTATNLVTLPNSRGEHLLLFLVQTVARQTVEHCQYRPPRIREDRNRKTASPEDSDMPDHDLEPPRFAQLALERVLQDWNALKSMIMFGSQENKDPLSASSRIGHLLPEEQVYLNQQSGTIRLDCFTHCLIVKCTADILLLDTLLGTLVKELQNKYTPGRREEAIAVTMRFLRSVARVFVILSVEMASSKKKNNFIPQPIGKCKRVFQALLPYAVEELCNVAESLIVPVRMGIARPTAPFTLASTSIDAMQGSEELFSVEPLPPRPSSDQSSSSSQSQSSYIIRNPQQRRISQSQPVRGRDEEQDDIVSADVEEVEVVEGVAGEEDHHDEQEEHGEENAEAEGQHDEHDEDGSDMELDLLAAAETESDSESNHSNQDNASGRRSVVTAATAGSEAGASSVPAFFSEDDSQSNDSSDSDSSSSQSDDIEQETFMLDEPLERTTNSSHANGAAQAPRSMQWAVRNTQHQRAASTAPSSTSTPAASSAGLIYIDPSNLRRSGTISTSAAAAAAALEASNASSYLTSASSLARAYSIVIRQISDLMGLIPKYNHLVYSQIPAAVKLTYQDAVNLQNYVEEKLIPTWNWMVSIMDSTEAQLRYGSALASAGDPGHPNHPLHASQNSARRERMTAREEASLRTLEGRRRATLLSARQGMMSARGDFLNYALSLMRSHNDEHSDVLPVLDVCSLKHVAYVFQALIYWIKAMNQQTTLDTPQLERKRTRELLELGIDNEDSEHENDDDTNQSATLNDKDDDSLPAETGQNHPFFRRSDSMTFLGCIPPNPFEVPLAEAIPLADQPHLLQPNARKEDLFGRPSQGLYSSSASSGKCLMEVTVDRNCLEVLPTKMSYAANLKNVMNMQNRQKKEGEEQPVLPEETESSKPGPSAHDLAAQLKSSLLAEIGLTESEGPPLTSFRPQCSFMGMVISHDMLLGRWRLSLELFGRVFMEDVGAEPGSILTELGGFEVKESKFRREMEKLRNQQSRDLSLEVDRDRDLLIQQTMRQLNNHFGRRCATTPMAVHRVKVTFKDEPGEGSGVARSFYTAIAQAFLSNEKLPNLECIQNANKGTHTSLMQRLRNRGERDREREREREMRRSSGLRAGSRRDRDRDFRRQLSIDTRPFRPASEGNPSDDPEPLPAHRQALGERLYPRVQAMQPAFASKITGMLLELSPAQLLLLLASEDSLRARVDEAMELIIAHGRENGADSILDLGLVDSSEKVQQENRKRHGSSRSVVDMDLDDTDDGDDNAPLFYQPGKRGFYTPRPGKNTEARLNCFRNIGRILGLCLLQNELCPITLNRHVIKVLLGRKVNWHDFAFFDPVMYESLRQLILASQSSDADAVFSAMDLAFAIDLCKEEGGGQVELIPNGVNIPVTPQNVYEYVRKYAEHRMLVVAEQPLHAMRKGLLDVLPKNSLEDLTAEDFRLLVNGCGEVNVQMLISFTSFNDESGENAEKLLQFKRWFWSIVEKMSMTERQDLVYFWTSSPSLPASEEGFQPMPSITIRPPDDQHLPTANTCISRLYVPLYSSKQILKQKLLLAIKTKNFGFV
UniProt Q16880: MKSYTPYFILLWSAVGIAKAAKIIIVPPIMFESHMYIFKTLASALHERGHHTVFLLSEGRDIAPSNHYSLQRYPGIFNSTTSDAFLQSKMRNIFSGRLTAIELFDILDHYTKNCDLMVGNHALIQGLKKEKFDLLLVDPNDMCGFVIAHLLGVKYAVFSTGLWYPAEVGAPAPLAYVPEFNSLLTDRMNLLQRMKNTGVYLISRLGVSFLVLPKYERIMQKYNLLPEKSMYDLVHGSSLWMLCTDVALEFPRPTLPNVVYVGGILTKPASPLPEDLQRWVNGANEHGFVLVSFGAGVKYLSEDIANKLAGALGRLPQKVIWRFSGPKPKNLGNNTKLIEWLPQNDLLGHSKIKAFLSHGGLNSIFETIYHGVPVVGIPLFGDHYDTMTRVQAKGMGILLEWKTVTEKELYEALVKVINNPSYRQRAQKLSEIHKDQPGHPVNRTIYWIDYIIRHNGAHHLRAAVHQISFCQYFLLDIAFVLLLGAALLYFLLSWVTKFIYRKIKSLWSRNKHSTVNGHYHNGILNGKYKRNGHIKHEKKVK
UniProt P63027, whole entry, looked up: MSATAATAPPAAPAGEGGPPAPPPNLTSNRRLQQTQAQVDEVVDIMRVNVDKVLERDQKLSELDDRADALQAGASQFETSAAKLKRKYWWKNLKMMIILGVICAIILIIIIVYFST
UniProt Q9UMX0, whole entry, looked up: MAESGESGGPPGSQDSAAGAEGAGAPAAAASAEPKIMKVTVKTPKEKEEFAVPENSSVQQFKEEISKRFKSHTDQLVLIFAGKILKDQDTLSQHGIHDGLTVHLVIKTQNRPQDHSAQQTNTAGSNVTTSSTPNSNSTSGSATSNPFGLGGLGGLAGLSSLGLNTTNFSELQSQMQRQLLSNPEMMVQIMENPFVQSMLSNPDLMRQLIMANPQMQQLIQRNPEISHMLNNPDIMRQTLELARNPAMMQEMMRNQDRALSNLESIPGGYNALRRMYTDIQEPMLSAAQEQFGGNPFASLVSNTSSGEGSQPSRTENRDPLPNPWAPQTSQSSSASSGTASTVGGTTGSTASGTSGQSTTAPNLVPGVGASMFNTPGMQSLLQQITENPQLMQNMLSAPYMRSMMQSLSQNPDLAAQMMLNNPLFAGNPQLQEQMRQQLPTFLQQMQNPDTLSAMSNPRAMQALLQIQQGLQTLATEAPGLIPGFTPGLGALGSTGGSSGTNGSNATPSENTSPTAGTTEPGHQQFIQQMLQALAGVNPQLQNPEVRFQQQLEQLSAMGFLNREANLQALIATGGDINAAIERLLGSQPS
UniProt Q96S82: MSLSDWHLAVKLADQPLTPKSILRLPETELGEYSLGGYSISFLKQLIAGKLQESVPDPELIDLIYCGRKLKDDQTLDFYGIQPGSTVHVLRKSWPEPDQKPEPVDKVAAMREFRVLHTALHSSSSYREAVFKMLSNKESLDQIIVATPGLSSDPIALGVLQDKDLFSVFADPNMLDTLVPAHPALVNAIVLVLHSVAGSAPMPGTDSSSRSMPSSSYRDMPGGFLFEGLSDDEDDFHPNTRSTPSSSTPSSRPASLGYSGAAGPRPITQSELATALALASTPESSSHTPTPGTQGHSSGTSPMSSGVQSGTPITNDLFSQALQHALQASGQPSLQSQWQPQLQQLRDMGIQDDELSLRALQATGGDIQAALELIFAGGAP
UniProt Q53GS9: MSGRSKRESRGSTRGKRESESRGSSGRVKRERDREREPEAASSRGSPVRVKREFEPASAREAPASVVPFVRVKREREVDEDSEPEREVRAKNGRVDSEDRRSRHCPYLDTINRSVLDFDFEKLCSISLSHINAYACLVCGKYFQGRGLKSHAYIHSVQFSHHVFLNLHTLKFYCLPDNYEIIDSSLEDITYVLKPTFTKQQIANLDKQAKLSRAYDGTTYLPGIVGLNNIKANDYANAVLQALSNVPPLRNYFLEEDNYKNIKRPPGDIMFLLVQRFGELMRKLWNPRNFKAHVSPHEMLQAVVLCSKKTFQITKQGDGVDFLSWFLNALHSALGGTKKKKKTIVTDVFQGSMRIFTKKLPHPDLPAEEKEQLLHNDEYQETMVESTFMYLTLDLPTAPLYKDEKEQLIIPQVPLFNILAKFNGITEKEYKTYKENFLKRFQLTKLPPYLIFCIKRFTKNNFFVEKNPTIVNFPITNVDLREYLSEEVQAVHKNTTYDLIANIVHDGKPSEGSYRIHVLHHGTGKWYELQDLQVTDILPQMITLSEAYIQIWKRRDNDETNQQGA

Experiments:
Test in all cases: log2 fold change, soluble protein after heating vs DMSO (PISA); higher = thermal stabilisation; K562 cells, 10 uM, 30 min; active = over 0.2 and 3.5 SD of the protein, either way, in both replicates (recomputed)
saracatinib = compound: CN1CCN(CCOc2cc(OC3CCOCC3)c3c(Nc4c(Cl)ccc5c4OCO5)ncnc3c2)CC1 [saracatinib]
In short: (§1)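 Soluble protein was quantified by TMTpro 16plex LC-MS/MS after channel sums were equalised. It was obtained as the supernatant after 21,000xg for 90 min from pooled aliquots of K562 cells (2×10^6 cells/mL, 10 μM compound, 30 min) heated for 3 min across 48°C-58°C and extracted in PBS with 0.5% NP-40 at 4°C. Thermal stability values are relative to control samples and come from duplicates. They are given as log2 fold changes.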

sotrastaurin = compound: CN1CCN(c2nc(C3=C(c4c[nH]c5ccccc45)C(=O)NC3=O)c3ccccc3n2)CC1 [sotrastaurin]
In short: as §1

alvocidib = compound: CN1CC[C@H](c2c(O)cc(O)c3c(=O)cc(-c4ccccc4Cl)oc23)[C@H](O)C1 [alvocidib]
In short: as §1

Tubastatin A = compound: CN1CCc2c(c3ccccc3n2Cc2ccc(C(=O)NO)cc2)C1 [Tubastatin A]
In short: as §1

[1] = compound: CNC(=O)C1=CC=CC=C1NC2=NC(=NC=C2Cl)NC3=C(C=C(C=C3)N4CCOCC4)OC
In short: as §1

defactinib = compound: CNC(=O)c1ccc(Nc2ncc(C(F)(F)F)c(NCc3nccnc3N(C)S(C)(=O)=O)n2)cc1 [defactinib]
In short: as §1

rucaparib = compound: CNCc1ccc(-c2[nH]c3cc(F)cc4c3c2CCNC4=O)cc1 [rucaparib]
In short: as §1

[2] = compound: CNc1nc(-c2ccc3c(N)n[nH]c3c2)cc(N2C[C@@H](C(=O)NC3CCCCC3)CC[C@H]2C)n1
In short: as §1

encorafenib = compound: COC(=O)N[C@@H](C)CNc1nccc(-c2cn(C(C)C)nc2-c2cc(Cl)cc(NS(C)(=O)=O)c2F)n1 [encorafenib]
In short: as §1

[3] = compound: COC(=O)[C@H](CCSC)NC(=O)C1=C(C=C(C=C1)NC[C@H](CS)N)C2=CC=CC=C2
In short: as §1

Measured: log2 fold change

UQCC2 (UniProt Q9BRT2)
inactive: saracatinib -0.042 | sotrastaurin -0.013 | alvocidib 0.031 | Tubastatin A 0.003 | [1] -0.016 | defactinib -0.03 | rucaparib -0.033 | [2] -0.05 | encorafenib -0.036 | [3] 0.036

USP19 isoform 6 (UniProt O94966)
inactive: saracatinib 0.048 | sotrastaurin -0.021 | alvocidib -0.085 | Tubastatin A 0.029 | [1] 0.011 | defactinib -0.039 | rucaparib 0.01 | [2] -0.029 | encorafenib 0.015 | [3] -0.025

USF2 (UniProt Q15853)
inactive: saracatinib -0.021 | sotrastaurin -0.013 | alvocidib 0.048 | Tubastatin A -0.032 | [1] 0.003 | defactinib 0.127 | rucaparib 0.056 | [2] -0.036 | encorafenib 0.029 | [3] 0.024

VAPB (UniProt O95292)
inactive: saracatinib 0.011 | sotrastaurin 0.021 | alvocidib -0.042 | Tubastatin A -0.031 | [1] 0.008 | defactinib -0.022 | rucaparib -0.047 | [2] -0.003 | encorafenib -0.008 | [3] 0.016

UGP2 (UniProt Q16851)
inactive: saracatinib 0.004 | sotrastaurin 0.003 | alvocidib -0.023 | Tubastatin A -0.019 | [1] -0.013 | defactinib -0.004 | rucaparib -0.05 | [2] -0.021 | encorafenib -0.017 | [3] 0.012

UFC1 (UniProt Q9Y3C8)
inactive: saracatinib 0.059 | sotrastaurin 0.018 | alvocidib -0.032 | Tubastatin A -0.022 | [1] -0.031 | defactinib 0.005 | rucaparib 0.033 | [2] -0.001 | encorafenib -0.085 | [3] 0.062

UQCRH (UniProt P07919)
inactive: saracatinib -0.005 | sotrastaurin 0.009 | alvocidib -0.042 | Tubastatin A 0.014 | [1] -0.018 | defactinib 0.034 | rucaparib -0.103 | [2] -0.123 | encorafenib -0.063 | [3] 0.029

UBXN4 (UniProt Q92575)
inactive: saracatinib -0.01 | sotrastaurin -0.01 | alvocidib 0.022 | Tubastatin A -0.013 | [1] -0.028 | defactinib -0.02 | rucaparib -0.003 | [2] -0.024 | encorafenib -0.011 | [3] 0.025

UBFD1 (UniProt O14562)
inactive: saracatinib -0.03 | sotrastaurin -0.013 | alvocidib -0.058 | Tubastatin A 0.07 | [1] 0.007 | defactinib -0.021 | rucaparib -0.041 | [2] -0.025 | encorafenib 0.007 | [3] -0.017

VCL (UniProt P18206)
inactive: saracatinib 0.058 | sotrastaurin 0.014 | alvocidib 0.018 | Tubastatin A -0.034 | [1] -0.03 | defactinib 0.004 | rucaparib -0.076 | [2] -0.015 | encorafenib -0.002 | [3] 0.027

VASP (UniProt P50552)
inactive: saracatinib -0.137 | sotrastaurin -0.184 | alvocidib -0.056 | Tubastatin A 0.003 | [1] 0.057 | defactinib -0.032 | rucaparib 0.236 | [2] 0.13 | encorafenib 0.136 | [3] -0.103

UBR7 (UniProt Q8N806)
inactive: saracatinib 0.056 | sotrastaurin 0.039 | alvocidib -0.107 | Tubastatin A 0.011 | [1] 0.006 | defactinib -0.073 | rucaparib -0.045 | [2] -0.064 | encorafenib 0.034 | [3] 0.024

UBR5 (UniProt O95071)
inactive: saracatinib 0.014 | sotrastaurin -0.149 | alvocidib -0.005 | Tubastatin A -0.048 | [1] 0.062 | defactinib -0.03 | rucaparib -0.015 | [2] -0.098 | encorafenib 0.101 | [3] 0

UTP15 (UniProt Q8TED0)
inactive: saracatinib -0.097 | sotrastaurin 0.008 | alvocidib 0.386 | Tubastatin A 0.046 | [1] 0.038 | defactinib 0.389 | rucaparib 0.395 | [2] 0.067 | encorafenib 0.142 | [3] -0.03

UGT8 (UniProt Q16880)
inactive: saracatinib 0.017 | sotrastaurin 0.103 | alvocidib 0.026 | Tubastatin A 0.065 | [1] 0.183 | defactinib 0.462 | rucaparib 0.078 | [2] -0.008 | encorafenib 0.07 | [3] -0.094

UBQLN4 (UniProt Q9NRR5)
inactive: saracatinib 0.056 | sotrastaurin -0.032 | alvocidib 0.004 | Tubastatin A -0.017 | [1] -0.027 | defactinib 0.034 | rucaparib -0.036 | [2] -0.044 | encorafenib -0.015 | [3] -0.01

UCHL3 (UniProt P15374)
inactive: saracatinib 0.001 | sotrastaurin -0.004 | alvocidib -0.13 | Tubastatin A -0.017 | [1] 0.022 | defactinib -0.031 | rucaparib -0.052 | [2] -0.024 | encorafenib 0.028 | [3] -0.005

UXS1 isoform 2 (UniProt Q8NBZ7)
inactive: saracatinib -0.018 | sotrastaurin 0.064 | alvocidib 0.004 | Tubastatin A 0.066 | [1] -0.013 | defactinib 0 | rucaparib 0.101 | [2] 0.013 | encorafenib 0.003 | [3] -0.014

VAMP2 (UniProt P63027)
inactive: saracatinib 0.049 | sotrastaurin 0.001 | alvocidib -0.009 | Tubastatin A 0.093 | [1] 0.018 | defactinib 0.091 | rucaparib -0.012 | [2] 0.135 | encorafenib 0.057 | [3] -0.161

Two neighbouring entries from above:
UGP2 (UniProt Q16851)
inactive: saracatinib 0.004 | sotrastaurin 0.003 | alvocidib -0.023 | Tubastatin A -0.019 | [1] -0.013 | defactinib -0.004 | rucaparib -0.05 | [2] -0.021 | encorafenib -0.017 | [3] 0.012

UFC1 (UniProt Q9Y3C8)
inactive: saracatinib 0.059 | sotrastaurin 0.018 | alvocidib -0.032 | Tubastatin A -0.022 | [1] -0.031 | defactinib 0.005 | rucaparib 0.033 | [2] -0.001 | encorafenib -0.085 | [3] 0.062

Remaining list, next part

VANGL1 (UniProt Q8TAA9)
inactive: saracatinib -0.092 | sotrastaurin 0.036 | alvocidib 0.127 | Tubastatin A 0.078 | [1] -0.047 | defactinib -0.096 | rucaparib 0.103 | [2] -0.047 | encorafenib 0.016 | [3] 0.029

UBQLN1 (UniProt Q9UMX0)
inactive: saracatinib 0.071 | sotrastaurin 0.038 | alvocidib 0.068 | Tubastatin A 0.006 | [1] -0.065 | defactinib -0.02 | rucaparib -0.04 | [2] -0.013 | encorafenib -0.032 | [3] 0.045

UBL7 (UniProt Q96S82)
inactive: saracatinib -0.152 | sotrastaurin -0.019 | alvocidib -0.105 | Tubastatin A 0.094 | [1] 0.042 | defactinib -0.043 | rucaparib -0.1 | [2] 0.015 | encorafenib 0.048 | [3] -0.146

UCK2 (UniProt Q9BZX2)
inactive: saracatinib 0.076 | sotrastaurin 0.021 | alvocidib -0.038 | Tubastatin A 0.013 | [1] -0.076 | defactinib -0.024 | rucaparib -0.038 | [2] -0.013 | encorafenib -0.001 | [3] 0.005

UNC45A (UniProt Q9H3U1)
inactive: saracatinib -0.079 | sotrastaurin -0.244 | alvocidib 0.002 | Tubastatin A 0.002 | [1] 0.028 | defactinib -0.045 | rucaparib 0.23 | [2] 0.084 | encorafenib 0.133 | [3] -0.095

USP47 (UniProt Q96K76)
inactive: saracatinib -0.077 | sotrastaurin -0.121 | alvocidib 0.027 | Tubastatin A 0.007 | [1] -0.012 | defactinib -0.038 | rucaparib 0.145 | [2] 0.038 | encorafenib 0.123 | [3] -0.042

UEVLD (UniProt Q8IX04)
inactive: saracatinib -0.06 | sotrastaurin 0.108 | alvocidib 0.02 | Tubastatin A 0.549 | [1] 0.192 | defactinib -0.032 | rucaparib 0.081 | [2] -0.144 | encorafenib 0.042 | [3] -0.082

USP39 (UniProt Q53GS9)
inactive: saracatinib 0.02 | sotrastaurin -0.027 | alvocidib 0.024 | Tubastatin A 0.01 | [1] 0 | defactinib 0.054 | rucaparib 0.053 | [2] -0.04 | encorafenib 0.037 | [3] 0.006
